Our source for the binding values is US20100239588A1 (SHANGHAI NATIONAL ENGINEERING RESEARCH CENTER OF ANTIBODY …, published 2010).

Chains of the proteins cited; added tags and fusions are not shown. Residues count along the entry.
UniProt P10923, residues 17-294: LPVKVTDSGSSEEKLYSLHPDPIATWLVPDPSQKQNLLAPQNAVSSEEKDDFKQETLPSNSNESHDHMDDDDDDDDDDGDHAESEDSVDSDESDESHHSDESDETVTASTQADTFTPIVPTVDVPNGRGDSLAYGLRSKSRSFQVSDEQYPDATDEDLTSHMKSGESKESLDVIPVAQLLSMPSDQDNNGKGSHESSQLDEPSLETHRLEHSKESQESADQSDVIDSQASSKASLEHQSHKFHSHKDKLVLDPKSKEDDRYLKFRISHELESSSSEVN

No constants are given. Whether binding was seen depends on the method and setting. Some binding calls cover weakened binding; strength is not graded here.

For the experiment, the target named is mouse OPN protein (mouse) (UniProt P10923). Description: western blot.

B1: mouse anti-human OPN monoclonal antibody 23C3 (antibody, V domains shown)
VH: EVQLVESGGGLVQPKGSLKISCAASGFTFNIYAMNWVRQAPGKGLEWVARIRSQSNNYTTYYADSVKDRFTISRDDSQSMLYLQMNNLKTEDTAMYYCVRQMGDYWGQGTTLTVSS
VL: YIQMTQSPASLSVSVGETVTITCRASENIYSFLAWYQQKQGKSPQLLVYAATNLADGVPSRFSGSGSGTQFSLKINSLQSEDFGTYYCQHFWGTPFTFGSGTKLEIKR
notes: also called 23C3 mAb; 23C3 monoclonal antibody
In the case of B1, the binding entry was “binds”.
